According to the supplement of paper PMC4683952:
Counter-ions that a name gives are not always drawn. This is one part of the list. Rule as the data show it: active = 2.5 or more and inactive = the rest. This data set is noisy: repeats of one test often differ as much as different tests do.

System: Lgr5 (MarsCy1-Lgr5-EGFP, U2OS)
Assay: cell-surface Lgr5 expression (SCi1 fluorescence, background-subtracted) relative to WT control (fold of WT control); higher = more Lgr5 at the plasma membrane
Conditions: U2OS MarsCy1-Lgr5-EGFP stable; treatment time: overnight; library: Prestwick; 20 µM

Row | SMILES | cell-surface Lgr5 expression
1 | CC(C[N+](C)(C)C)OC(N)=O (centres undefined) [Bethanechol chloride] | inactive: 1.02
2 | COc1ccc2c(c1)C(=O)N(CCc1ccc(S(=O)(=O)NC(=O)NC3CCCCC3)cc1)C(=O)C2(C)C [Gliquidone] | inactive: 1.9
3 | CN(C)CCN(Cc1ccc(Cl)cc1)c1ccccn1 [Chloropyramine hydrochloride] | inactive: 2.44
4 | COc1ccc([C@@H]2Sc3ccccc3N(CCN(C)C)C(=O)[C@@H]2OC(C)=O)cc1 [Diltiazem hydrochloride] | inactive: 1.04
5 | Cc1cn([C@H]2C[C@H](N=[N+]=[N-])[C@@H](CO)O2)c(=O)[nH]c1=O [Zidovudine, AZT] | inactive: 1.72
6 | CCCNC(C)C(=O)Nc1c(C)csc1C(=O)OC (centres undefined) [Articaine hydrochloride] | inactive: 1.33
7 | NCCc1cc[nH]n1 [Betazole hydrochloride] | inactive: 1.01
8 | Cc1c(NC(C)C)c(=O)n(-c2ccccc2)n1C [Isopyrin hydrochloride] | inactive: 1.71
9 | Cc1cc(=O)n(-c2ccccc2)n1C [Antipyrine] | inactive: 1.15
10 | Clc1ccc(COC(Cn2ccnc2)c2ccc(Cl)cc2Cl)c(Cl)c1 (centres undefined) [Miconazole] | inactive: 0.911
11 | NC12CC3CC(CC(C3)C1)C2 [Adamantamine fumarate] | inactive: 1.28
12 | CN1CCN(C2=Nc3cc(Cl)ccc3Nc3ccccc32)CC1 [Clozapine] | inactive: 1.22
13 | C[C@@H]1NC(=O)NC1=O [Methylhydantoin-5-(L)] | active: 3.53
14 | CO[C@@]1(NC(=O)CSCC#N)C(=O)N2C(C(=O)O)=C(CSc3nnnn3C)CS[C@@H]21 [Cefmetazole sodium salt] | inactive: 1.82
15 | C[C@@H]1[C@H](O)[C@@H](C)/C=C/C=C/C=C/C=C/C=C/C=C/C=C/[C@H](O[C@@H]2O[C@H](C)[C@@H](O)[C@H](N)[C@@H]2O)C[C@@H]2O[C@](O)(C[C@@H](O)C[C@@H](O)[C@H](O)CC[C@@H](O)C[C@@H](O)CC(=O)O[C@H]1C)C[C@H](O)[C@H]2C(=O)O [Amphotericin B] | inactive: -0.248
16 | CC(C)NC[C@H](O)COc1ccc(CC(N)=O)cc1 [(S)-(-)-Atenolol] | inactive: 2.15
17 | CCC(NC(C)C)C(O)c1ccc(O)c(O)c1 (centres undefined) [Isoetharine mesylate salt] | active: 2.9
18 | CCC(Cc1c(I)cc(I)c(N)c1I)C(=O)O (centres undefined) [Iopanoic acid] | inactive: 1.13
19 | CN1CCc2cccc3c2[C@H]1Cc1ccc(O)c(O)c1-3 [R(-) Apomorphine hydrochloride hemihydrate] | inactive: 1.69
20 | O=c1cc(-c2ccc(O)c(O)c2)oc2cc(O)cc(O)c12 [Luteolin] | inactive: 1.44
21 | CC(C)(C(=O)c1cccnc1)c1cccnc1 [Metyrapone] | inactive: 2.23
22 | CC(=O)N(O)CCCCCNC(=O)CCC(=O)N(O)CCCCCNC(=O)CCC(=O)N(O)CCCCCN [Deferoxamine mesylate] | inactive: 0.116

Row | SMILES | cell-surface Lgr5 expression
23 | CC(C)/N=c1\cc2n(-c3ccc(Cl)cc3)c3ccccc3nc-2cc1Nc1ccc(Cl)cc1 [Clofazimine] | inactive: 1.07
24 | CCN[C@H]1C[C@H](C)S(=O)(=O)c2sc(S(N)(=O)=O)cc21 [Dorzolamide hydrochloride] | inactive: 1.38
25 | CC(C)(Sc1cc(C(C)(C)C)c(O)c(C(C)(C)C)c1)Sc1cc(C(C)(C)C)c(O)c(C(C)(C)C)c1 [Probucol] | inactive: 1.39
26 | Cn1ccnc1S [Methimazole] | inactive: 1.9
27 | Nc1c(Br)cc(Br)cc1CN[C@H]1CC[C@H](O)CC1 [Ambroxol hydrochloride] | inactive: 1.5
28 | COc1cc(OC)c(C(=O)CCCN2CCCC2)c(OC)c1 [Buflomedil hydrochloride] | inactive: 1.94
29 | CC[C@@H](CC[C@@H](C)[C@H]1CC[C@H]2[C@@H]3CCC4C[C@@H](O)CC[C@]4(C)[C@H]3CC[C@]12C)C(C)C (stereo partly drawn) [Beta-sistosterol] | inactive: 1.22
30 | CCN1C(=O)NC(c2ccccc2)C1=O (centres undefined) [Ethotoin] | inactive: 1.96
31 | CN1CCC(=C2c3ccccc3CC(=O)c3sccc32)CC1 [Ketotifen fumarate] | inactive: 1.25
32 | COc1ccccc1N1CCN(CC(O)COc2cccc3ccccc23)CC1 (centres undefined) [Naftopidil dihydrochloride] | inactive: 1.04
33 | CN1CCCC(CC2c3ccccc3Sc3ccccc32)C1 (centres undefined) [Metixene hydrochloride] | inactive: 2.33
34 | COc1ccc2c(c1)N(C[C@H](C)CN(C)C)c1ccccc1S2 [Methotrimeprazine maleat salt] | active: 3.17
35 | CCCN(CCC)C(=O)C(CCC(=O)O)NC(=O)c1ccccc1 (centres undefined) [Proglumide] | inactive: 0.747
36 | COc1ccc(-c2ccc(=N)n(CCCC(=O)O)n2)cc1 [Gabazine] | inactive: 2.08
37 | CO[C@H]1C[C@H](O[C@H]2[C@H](C)[C@@H](O[C@@H]3O[C@H](C)C[C@H](N(C)C)[C@H]3OC(C)=O)[C@@H](C)C[C@@]3(CO3)C(=O)[C@H](C)[C@@H](OC(C)=O)[C@@H](C)[C@@H](C)OC(=O)[C@@H]2C)O[C@@H](C)[C@@H]1OC(C)=O [Troleandomycin] | inactive: 1.57
38 | Cc1cc(C(=O)NNCc2ccccc2)no1 [Isocarboxazid] | inactive: 1.87
39 | CN(C)CC/C=C1\c2ccccc2CSc2ccccc21 [Dosulepin hydrochloride] | inactive: 2.32
40 | CC(C)(Oc1ccc(Cl)cc1)C(=O)O [Clofibric acid] | inactive: 1.74
41 | Cn1c(=O)c2[nH]cnc2n(C)c1=O [Aminophylline] | inactive: 2
42 | CN(C)CCC=C1c2ccccc2CCc2ccccc21 [Amitryptiline hydrochloride] | inactive: 0.874
43 | Cc1[nH]c(=O)c(C#N)cc1-c1ccncc1 [Milrinone] | inactive: 0.398
44 | COc1cc(/C=C/C(=O)N2CCC=CC2=O)cc(OC)c1OC [Piperlongumine] | active: 3.21

Part of the list above in order of length of the SMILES, smallest number first.
Row | SMILES | cell-surface Lgr5 expression
26 | Cn1ccnc1S [Methimazole] | inactive: 1.9
30 | CCN1C(=O)NC(c2ccccc2)C1=O (centres undefined) [Ethotoin] | inactive: 1.96
44 | COc1cc(/C=C/C(=O)N2CCC=CC2=O)cc(OC)c1OC [Piperlongumine] | active: 3.21
